Measurements reported in PubChem BioAssay AID504772 (Drosophila RNAi Screening Center, 2011).

- Screen: 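Genes that raise or lower Wnt activity at the LRP6 co-receptor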 (primary screen)
- System: Drosophila clone 8 cells
- Reagent: long dsRNA against Drosophila genes
- Timing: four days
- Challenge: pathway switched on by co-transfected constitutively active LRP6 lacking its extracellular part (DeltaNLRP6)
- Measured: 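Light from a beta-catenin-dependent firefly luciferase reporter (dTF12) relative to co-transfected Renilla luciferase, given as up or down, after four days with Wnt signalling driven by truncated active LRP6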
- Hit rule: 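a gene is picked when its silencing raises Wnt reporter signal by twofold or more and a human counterpart of the fly gene is known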
- Calls: active = picked as conserved enhancer hit; inactive = not picked
This is not the whole library: the list holds selected reagents. 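Only primary screen hits listed, as up or down without numbers; fold changes behind calls not deposited; all reporter-lowering hits marked not picked.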 The record does not give: the amount of reagent, the dose of the treatment.

{"Gene":"tai (taiman)","reporter change after knockdown":"reporter signal went down","Outcome":"inactive"}
{"Gene":"Cdk1 (Cyclin-dependent kinase 1)","reporter change after knockdown":"reporter signal went down","Outcome":"inactive"}
{"Gene":"Tpst (Tyrosylprotein sulfotransferase)","reporter change after knockdown":"reporter signal went down","Outcome":"inactive"}
{"Gene":"Bili (Band4.1 inhibitor LRP interactor)","reporter change after knockdown":"reporter signal went up","Outcome":"active"}
{"Gene":"gpp (grappa)","reporter change after knockdown":"reporter signal went down","Outcome":"inactive"}
{"Gene":"Chd3","reporter change after knockdown":"reporter signal went up","Outcome":"inactive"}
{"Gene":"Vsx1 (Visual system homeobox 1)","reporter change after knockdown":"reporter signal went down","Outcome":"inactive"}
{"Gene":"CG42724","reporter change after knockdown":"reporter signal went up","Outcome":"inactive"}
{"Gene":"jub (Ajuba LIM protein)","reporter change after knockdown":"reporter signal went down","Outcome":"inactive"}
{"Gene":"E2f1 (E2F transcription factor 1)","reporter change after knockdown":"reporter signal went down","Outcome":"inactive"}
{"Gene":"puf (puffyeye)","reporter change after knockdown":"reporter signal went up","Outcome":"inactive"}
{"Gene":"CG13148","reporter change after knockdown":"reporter signal went up","Outcome":"inactive"}
{"Gene":"RpL27A (Ribosomal protein L27A)","reporter change after knockdown":"reporter signal went up","Outcome":"inactive"}
{"Gene":"Rop (Ras opposite)","reporter change after knockdown":"reporter signal went up","Outcome":"inactive"}
{"Gene":"pb (proboscipedia)","reporter change after knockdown":"reporter signal went up","Outcome":"inactive"}
{"Gene":"Clp (Clipper)","reporter change after knockdown":"reporter signal went down","Outcome":"inactive"}
{"Gene":"mbl (muscleblind)","reporter change after knockdown":"reporter signal went down","Outcome":"inactive"}
{"Gene":"Taf9 (TBP-associated factor 9)","reporter change after knockdown":"reporter signal went up","Outcome":"inactive"}
{"Gene":"bun (bunched)","reporter change after knockdown":"reporter signal went up","Outcome":"inactive"}
